# PubChem BioAssay AID504774 – Drosophila RNAi Screening Center, 2011
# Purpose: 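Fly genes whose loss alters survival after alkylation damage to DNA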 (primary screen)
# Cells: Drosophila Kc167 cells
# Reagent: long dsRNA against Drosophila genes, about 0.25 µg dsRNA per well
# Timing: about 6 days: 3 days knock-down, then 3 days with or without MMS
# Treatment: methyl methanesulphonate 0.004% (w/v) for 3 days after knock-down
# Measured: 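ATP-dependent luminescence as a measure of live cells in MMS-exposed wells, quantile normalised within each plate, with replicate values also given as a mean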
# Scale: mean viability with MMS: higher = more surviving cells after MMS
# The screen tested about 23,000 reagents; below is an unselected part of those that have a named target and a result. 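Values are quantile-normalised luminescence on an arbitrary scale; higher means more cells surviving MMS.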 Further read-outs or replicates are left out here.
The opening 5 records, ahead of the listing:
predicted target,dsRNA,mean viability with MMS
CG12496,DRSC18602,3.34e6
CG30432,DRSC04833,3.52e6
Mcm7,DRSC11219,3.43e6
Vsp37A,DRSC18794,3.56e6
CG11262,DRSC09831,3.62e6

The listing, from the first entry:
predicted target,dsRNA,mean viability with MMS
CG12496,DRSC18602,3.34e6
CG30432,DRSC04833,3.52e6
Mcm7,DRSC11219,3.43e6
Vsp37A,DRSC18794,3.56e6
CG11262,DRSC09831,3.62e6
CG14708,DRSC14930,3.67e6
Ubr1,DRSC20148,4.06e6
CG4582,DRSC15605,3.59e6
Kap-alpha1,DRSC11356,3.52e6
sowah,DRSC09186,3.30e6
sowah,DRSC09758,3.52e6
CG18744,DRSC15381,3.56e6
nes,DRSC11375,3.52e6
CG18605,DRSC06772,3.38e6
tna,DRSC09053,3.51e6
tna,DRSC10937,3.34e6
tna,DRSC23236,3.65e6
Atxn7,DRSC00726,3.26e6
Atxn7,DRSC23138,3.62e6
CG3777,DRSC18489,1.90e6
Got1,DRSC07177,3.57e6
cn,DRSC07594,3.46e6
wkd,DRSC15777,3.56e6
Prx2,DRSC20256,3.41e6
CG14132,DRSC10136,3.72e6
Nup93-1,DRSC19344,2.90e6
CHMP2B,DRSC10436,3.47e6
CG7298,DRSC10802,3.56e6
HipHop,DRSC10734,3.56e6
Parp16,DRSC06597,3.60e6
CG17493,DRSC03798,3.39e6
mRpS16,DRSC07152,3.42e6
CG17803,DRSC15275,3.74e6
CG17803,DRSC22811,3.21e6
SoxN,DRSC03440,3.43e6
SoxN,DRSC21779,3.22e6
CG13539,DRSC04181,3.41e6
mld,DRSC13681,3.49e6
mld,DRSC14622,3.63e6
mld,DRSC21771,3.28e6
FucTB,DRSC02745,3.63e6
RnpS1,DRSC15154,3.34e6
JTBR,DRSC08667,3.45e6
mas,DRSC08720,3.65e6
gzl,DRSC12517,3.52e6
CG31821,DRSC22162,3.56e6
CG2790,DRSC04045,3.51e6
sug,DRSC06855,3.27e6
CG10799,DRSC06002,3.65e6
CG8785,DRSC07266,3.41e6
apn,DRSC15124,3.53e6
CG9444,DRSC16493,3.61e6
CG3592,DRSC18315,3.59e6
Dbp80,DRSC22034,3.70e6
Sara,DRSC04653,3.60e6
CG4770,DRSC15639,3.55e6
CSN1b,DRSC11108,3.37e6
CG32856,DRSC13124,3.47e6
Lamtor4,DRSC08436,3.53e6
Fuca,DRSC10591,3.50e6
CG13893,DRSC08363,3.43e6
Taf1,DRSC12607,3.32e6
CG4306,DRSC10409,3.58e6
CG3021,DRSC18165,3.56e6
CG3021,DRSC18652,3.65e6
Corp,DRSC17771,3.66e6
CSN4,DRSC07350,3.38e6
CG30184,DRSC22277,3.50e6
